The series can be described thus: High-fat diet fed rat study: serum total T3 and T4 levels. Particulars: HFD rats, 24 hrs post-dose. Format: in vivo.

On to `CC(C)c1cc(Oc2c(Cl)cc(-n3nc(C#N)c(=O)[nH]c3=O)cc2Cl)n[nH]c1=O` [MGL-3196, 2-[3,5-dichloro-4-(5-isopropyl-6-oxo-1,6-dihydropyridazin-3-yloxy)phenyl]-3,5-dioxo-2,3,4,5-tetrahydro[1,2,4]triazine-6-carbonitrile], for which, under “MGL-3196 P.O. single dose”, the “effect on serum total T3 levels” value is listed as “did not significantly alter” and the “effect on serum total T4” value is recorded as “dose-dependent decrease”.

`N[C@@H](Cc1cc(I)c(Oc2ccc(O)c(I)c2)c(I)c1)C(=O)O` [T3, triiodothyronine]: under “0.5 mg/kg I.P. single dose”, the “serum T3 levels (exogenous and endogenous not distinguished)” value is “significantly elevated”; the “serum T4 levels” value is on record as “significantly reduced”.

The record behind these values is PMC7732128, “Regulation of gene transcription by thyroid hormone receptor β agonists in clinical development for the treatment of non-alcoholic steatohepatitis (NASH)” (PLoS ONE, 2020).
